Assay results: the supplement of paper PMC10849652
Some of the results follow.

Amino acid sequences for entries named in this document (tags omitted). A change or cut given only in a name is not applied to a line headed by its entry.
UniProt Q96RQ1: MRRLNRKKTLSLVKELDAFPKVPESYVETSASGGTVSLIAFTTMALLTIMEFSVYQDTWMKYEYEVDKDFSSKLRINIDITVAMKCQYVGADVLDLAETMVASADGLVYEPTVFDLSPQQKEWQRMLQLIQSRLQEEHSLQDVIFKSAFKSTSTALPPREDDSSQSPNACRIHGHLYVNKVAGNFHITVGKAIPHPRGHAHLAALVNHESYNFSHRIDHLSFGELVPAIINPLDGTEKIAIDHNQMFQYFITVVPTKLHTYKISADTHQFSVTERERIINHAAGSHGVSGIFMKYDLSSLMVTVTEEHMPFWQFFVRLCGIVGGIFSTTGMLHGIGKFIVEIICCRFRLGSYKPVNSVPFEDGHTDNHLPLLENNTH
UniProt O00303, whole entry, looked up: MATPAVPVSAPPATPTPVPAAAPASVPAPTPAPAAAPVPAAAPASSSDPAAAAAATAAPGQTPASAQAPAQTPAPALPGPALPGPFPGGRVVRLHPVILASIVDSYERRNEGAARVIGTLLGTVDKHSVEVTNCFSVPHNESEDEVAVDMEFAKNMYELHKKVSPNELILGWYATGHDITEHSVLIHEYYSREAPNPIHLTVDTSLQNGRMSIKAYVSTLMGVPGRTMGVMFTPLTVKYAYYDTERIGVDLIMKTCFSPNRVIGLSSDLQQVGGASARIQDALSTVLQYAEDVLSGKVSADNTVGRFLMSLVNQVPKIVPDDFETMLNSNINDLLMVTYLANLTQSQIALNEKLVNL
UniProt Q8IV48: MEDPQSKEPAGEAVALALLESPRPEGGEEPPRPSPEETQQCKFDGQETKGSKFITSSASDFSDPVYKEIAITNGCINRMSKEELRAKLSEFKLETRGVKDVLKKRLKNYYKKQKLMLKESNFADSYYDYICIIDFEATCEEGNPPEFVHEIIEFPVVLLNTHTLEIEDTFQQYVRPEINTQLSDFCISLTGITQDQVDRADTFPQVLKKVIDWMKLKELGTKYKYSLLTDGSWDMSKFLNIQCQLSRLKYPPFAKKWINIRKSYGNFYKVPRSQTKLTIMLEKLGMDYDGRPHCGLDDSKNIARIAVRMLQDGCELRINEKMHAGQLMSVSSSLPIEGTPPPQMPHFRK
UniProt Q9NPA8: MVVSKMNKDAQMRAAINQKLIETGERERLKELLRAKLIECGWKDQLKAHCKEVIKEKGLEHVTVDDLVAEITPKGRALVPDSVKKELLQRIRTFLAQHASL
UniProt Q9BV81: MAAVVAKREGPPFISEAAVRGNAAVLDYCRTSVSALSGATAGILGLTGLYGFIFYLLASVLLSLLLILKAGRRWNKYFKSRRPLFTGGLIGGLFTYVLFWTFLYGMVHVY
UniProt P84090, whole entry, looked up: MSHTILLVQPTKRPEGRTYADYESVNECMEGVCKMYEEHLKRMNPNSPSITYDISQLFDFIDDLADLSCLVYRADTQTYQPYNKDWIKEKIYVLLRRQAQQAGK
UniProt P34913, whole entry, looked up: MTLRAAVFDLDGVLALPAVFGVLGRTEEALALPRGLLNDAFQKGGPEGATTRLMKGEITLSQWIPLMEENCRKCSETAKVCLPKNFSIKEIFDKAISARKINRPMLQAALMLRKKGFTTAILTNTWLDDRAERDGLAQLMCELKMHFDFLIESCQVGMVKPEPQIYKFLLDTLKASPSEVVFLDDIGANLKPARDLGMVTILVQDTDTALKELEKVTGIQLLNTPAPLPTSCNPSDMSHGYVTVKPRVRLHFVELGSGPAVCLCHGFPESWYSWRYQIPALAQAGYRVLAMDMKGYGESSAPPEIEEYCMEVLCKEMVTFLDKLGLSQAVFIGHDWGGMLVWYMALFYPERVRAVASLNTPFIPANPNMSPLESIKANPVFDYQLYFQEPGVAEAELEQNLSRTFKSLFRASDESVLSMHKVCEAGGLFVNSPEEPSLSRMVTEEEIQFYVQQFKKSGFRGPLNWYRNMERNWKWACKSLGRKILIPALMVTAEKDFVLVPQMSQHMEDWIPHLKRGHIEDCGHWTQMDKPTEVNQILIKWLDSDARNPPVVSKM
UniProt Q9UBC2: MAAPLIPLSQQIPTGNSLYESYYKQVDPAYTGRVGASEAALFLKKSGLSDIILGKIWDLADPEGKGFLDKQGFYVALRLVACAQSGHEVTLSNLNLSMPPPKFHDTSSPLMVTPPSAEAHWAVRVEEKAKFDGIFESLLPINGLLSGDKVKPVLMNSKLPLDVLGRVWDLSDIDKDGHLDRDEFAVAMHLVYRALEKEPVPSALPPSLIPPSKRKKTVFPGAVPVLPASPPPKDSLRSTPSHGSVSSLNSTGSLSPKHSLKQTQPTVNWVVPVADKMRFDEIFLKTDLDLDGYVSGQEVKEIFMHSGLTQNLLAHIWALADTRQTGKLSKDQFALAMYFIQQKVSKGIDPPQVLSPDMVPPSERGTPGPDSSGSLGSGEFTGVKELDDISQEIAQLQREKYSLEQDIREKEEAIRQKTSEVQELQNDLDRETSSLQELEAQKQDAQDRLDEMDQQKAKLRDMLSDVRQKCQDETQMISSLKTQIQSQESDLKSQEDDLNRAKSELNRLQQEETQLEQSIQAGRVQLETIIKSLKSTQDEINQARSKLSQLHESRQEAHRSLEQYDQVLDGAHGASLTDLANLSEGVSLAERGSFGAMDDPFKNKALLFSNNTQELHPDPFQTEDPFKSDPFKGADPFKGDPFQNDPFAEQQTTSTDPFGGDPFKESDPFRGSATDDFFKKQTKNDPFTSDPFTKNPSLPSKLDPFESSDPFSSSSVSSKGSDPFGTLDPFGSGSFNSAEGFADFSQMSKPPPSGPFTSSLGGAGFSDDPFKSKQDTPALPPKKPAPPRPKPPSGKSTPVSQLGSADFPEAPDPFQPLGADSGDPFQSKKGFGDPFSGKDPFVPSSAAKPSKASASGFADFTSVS
UniProt Q92889: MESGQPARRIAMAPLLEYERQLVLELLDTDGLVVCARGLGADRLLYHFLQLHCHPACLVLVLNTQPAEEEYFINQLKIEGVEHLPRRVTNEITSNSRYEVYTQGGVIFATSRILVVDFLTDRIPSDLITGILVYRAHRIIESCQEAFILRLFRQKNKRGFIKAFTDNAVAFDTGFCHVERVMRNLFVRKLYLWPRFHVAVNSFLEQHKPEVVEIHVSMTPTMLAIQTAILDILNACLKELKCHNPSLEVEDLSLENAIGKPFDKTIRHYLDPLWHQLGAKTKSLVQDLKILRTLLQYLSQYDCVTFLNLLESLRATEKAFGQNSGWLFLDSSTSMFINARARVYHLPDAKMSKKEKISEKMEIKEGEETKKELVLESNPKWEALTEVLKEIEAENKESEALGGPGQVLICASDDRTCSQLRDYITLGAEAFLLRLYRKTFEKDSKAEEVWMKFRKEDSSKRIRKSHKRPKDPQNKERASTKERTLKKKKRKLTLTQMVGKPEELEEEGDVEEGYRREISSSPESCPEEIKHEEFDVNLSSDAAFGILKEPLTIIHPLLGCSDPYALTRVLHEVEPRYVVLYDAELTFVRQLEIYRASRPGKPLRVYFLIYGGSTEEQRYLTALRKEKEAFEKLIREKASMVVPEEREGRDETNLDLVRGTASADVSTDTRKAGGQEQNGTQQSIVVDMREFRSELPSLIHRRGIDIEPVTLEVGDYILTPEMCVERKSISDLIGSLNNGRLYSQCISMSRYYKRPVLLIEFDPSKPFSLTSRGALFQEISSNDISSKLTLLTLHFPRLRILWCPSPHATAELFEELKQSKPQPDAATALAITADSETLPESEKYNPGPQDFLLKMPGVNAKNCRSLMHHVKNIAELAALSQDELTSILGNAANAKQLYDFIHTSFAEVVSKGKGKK
UniProt O43768: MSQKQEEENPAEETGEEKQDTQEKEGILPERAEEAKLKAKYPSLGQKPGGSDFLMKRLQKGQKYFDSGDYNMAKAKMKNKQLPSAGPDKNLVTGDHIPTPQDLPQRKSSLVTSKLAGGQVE
UniProt P54852: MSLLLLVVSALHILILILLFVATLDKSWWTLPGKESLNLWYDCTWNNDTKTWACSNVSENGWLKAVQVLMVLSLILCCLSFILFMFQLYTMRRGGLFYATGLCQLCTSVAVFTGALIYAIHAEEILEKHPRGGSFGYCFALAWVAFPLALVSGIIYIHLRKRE
UniProt O75356: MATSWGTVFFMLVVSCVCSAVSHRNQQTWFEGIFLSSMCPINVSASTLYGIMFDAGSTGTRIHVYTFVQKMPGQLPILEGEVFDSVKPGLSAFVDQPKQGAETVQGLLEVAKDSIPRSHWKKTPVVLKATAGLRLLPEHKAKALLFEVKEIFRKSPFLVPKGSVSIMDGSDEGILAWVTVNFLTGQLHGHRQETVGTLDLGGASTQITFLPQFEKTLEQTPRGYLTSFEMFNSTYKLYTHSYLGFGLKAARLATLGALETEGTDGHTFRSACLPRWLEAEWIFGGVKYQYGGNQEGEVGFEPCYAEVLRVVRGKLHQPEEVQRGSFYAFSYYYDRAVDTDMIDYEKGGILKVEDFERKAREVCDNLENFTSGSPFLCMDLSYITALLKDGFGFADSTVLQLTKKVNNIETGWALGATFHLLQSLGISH
UniProt Q5J8M3, whole entry, looked up: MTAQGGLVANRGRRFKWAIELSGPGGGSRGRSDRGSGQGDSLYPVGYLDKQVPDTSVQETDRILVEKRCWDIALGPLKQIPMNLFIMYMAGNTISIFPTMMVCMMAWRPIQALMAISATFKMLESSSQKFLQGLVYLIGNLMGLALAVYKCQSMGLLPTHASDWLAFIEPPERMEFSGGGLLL
UniProt Q6IA86: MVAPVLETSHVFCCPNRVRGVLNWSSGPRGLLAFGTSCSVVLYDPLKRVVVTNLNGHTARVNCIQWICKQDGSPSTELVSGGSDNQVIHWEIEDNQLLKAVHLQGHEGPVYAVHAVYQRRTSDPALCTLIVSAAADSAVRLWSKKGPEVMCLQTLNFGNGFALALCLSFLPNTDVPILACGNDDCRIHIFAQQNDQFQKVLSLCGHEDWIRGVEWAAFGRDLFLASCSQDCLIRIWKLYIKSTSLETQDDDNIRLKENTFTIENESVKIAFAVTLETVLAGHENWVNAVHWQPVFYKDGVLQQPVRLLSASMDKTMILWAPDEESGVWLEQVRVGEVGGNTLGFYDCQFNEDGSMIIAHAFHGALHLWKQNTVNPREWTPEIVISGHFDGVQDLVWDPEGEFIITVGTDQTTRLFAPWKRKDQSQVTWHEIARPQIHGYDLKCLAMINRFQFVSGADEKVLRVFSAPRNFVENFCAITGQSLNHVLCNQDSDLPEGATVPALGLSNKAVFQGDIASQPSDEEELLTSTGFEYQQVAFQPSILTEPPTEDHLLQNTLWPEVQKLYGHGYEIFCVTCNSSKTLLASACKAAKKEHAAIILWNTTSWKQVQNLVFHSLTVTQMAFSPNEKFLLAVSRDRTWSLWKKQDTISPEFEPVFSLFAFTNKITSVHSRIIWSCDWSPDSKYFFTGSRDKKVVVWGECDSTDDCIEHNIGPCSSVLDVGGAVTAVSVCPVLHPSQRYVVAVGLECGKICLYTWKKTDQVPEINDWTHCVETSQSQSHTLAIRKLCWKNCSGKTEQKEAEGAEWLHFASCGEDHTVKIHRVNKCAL
UniProt O14638, whole entry, looked up: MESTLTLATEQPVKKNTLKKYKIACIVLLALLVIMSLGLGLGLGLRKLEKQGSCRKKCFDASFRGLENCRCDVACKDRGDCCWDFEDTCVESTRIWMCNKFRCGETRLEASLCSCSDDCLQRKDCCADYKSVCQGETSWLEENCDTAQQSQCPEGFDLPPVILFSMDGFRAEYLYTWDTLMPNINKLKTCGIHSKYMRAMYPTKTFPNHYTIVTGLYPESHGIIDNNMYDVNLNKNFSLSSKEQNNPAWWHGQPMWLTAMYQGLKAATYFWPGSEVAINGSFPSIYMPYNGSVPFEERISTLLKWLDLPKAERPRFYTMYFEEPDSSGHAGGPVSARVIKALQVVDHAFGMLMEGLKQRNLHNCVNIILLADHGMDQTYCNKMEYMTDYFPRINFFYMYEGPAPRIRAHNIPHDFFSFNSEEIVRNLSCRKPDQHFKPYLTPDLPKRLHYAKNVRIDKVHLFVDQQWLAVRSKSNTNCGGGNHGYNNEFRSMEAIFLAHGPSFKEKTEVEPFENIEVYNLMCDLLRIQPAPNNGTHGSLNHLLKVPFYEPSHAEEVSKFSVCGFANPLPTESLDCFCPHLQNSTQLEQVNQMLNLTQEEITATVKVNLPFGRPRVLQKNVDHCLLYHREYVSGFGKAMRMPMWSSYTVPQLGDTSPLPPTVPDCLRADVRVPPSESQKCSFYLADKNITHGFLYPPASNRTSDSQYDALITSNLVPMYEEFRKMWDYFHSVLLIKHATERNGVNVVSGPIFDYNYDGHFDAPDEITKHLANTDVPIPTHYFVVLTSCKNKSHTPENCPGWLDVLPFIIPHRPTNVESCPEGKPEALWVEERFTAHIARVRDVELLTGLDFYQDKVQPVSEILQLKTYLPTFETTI
UniProt P50402: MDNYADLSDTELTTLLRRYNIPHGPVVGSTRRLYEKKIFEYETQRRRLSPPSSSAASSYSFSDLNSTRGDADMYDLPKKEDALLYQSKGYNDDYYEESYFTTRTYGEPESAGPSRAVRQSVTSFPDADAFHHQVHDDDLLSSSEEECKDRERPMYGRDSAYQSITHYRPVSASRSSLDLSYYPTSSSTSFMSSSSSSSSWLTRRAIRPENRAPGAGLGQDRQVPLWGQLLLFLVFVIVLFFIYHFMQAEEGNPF

Compound: CCN(CCCOc1ccc2c(Nc3cc(CC(=O)Nc4cccc(F)c4)[nH]n3)ncnc2c1)CCOP(=O)(O)O [barasertib]
Assay: log2 fold change, soluble protein after heating vs DMSO (PISA); higher = thermal stabilisation; K562 lysate, 10 uM; active = over 0.2 and 3.5 SD of the protein, either way, in both replicates (recomputed)
Outline: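 Following dounce homogenisation of K562 pellets in PBS pH 7.4 with 1 mM MgCl2, crude extract at 1 mg/mL protein was incubated for 30 min with 10 μM compound. Aliquots were then heated for 3 min over 48°C-58°C and pooled, NP-40 was added to 0.5% at 4°C, and soluble protein was recovered as the supernatant at 21,000xg for 90 min. Channel-sum-equalised TMTpro 16plex LC-MS/MS quantified this protein. Each value, from duplicates, is a log-two fold change in thermal stability relative to solvent controls.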

log2 fold change, inactive:
EIF3G (UniProt K7ER90) 0.284, EP300 (UniProt Q09472) 0.007, ERGIC2 (UniProt Q96RQ1) 0.125, ERAL1 (UniProt O75616) -0.032, EIF3F (UniProt O00303) 0.019, EMC3 (UniProt Q9P0I2) -0.034, ELMO1 (UniProt Q92556) 0.111, ERC1 (UniProt X6RLX0) 0.001, EIF3B isoform 2 (UniProt P55884) 0.003, ERI1 (UniProt Q8IV48) 0.008, ENY2 (UniProt Q9NPA8) 0.072, EMC7 (UniProt Q9NPA0) -0.006, EMC6 (UniProt Q9BV81) -0.044, EIF2D (UniProt P41214) 0.017, EIF2S3 (UniProt P41091) -0.019, ELF2 (UniProt Q15723) -0.123, ERH (UniProt P84090) -0.032, EPHX2 (UniProt P34913) -0.026, EPS15L1 isoform 2 (UniProt Q9UBC2) -0.035, ERCC4 (UniProt Q92889) 0.163, ERCC3 (UniProt P19447) 0.11, EPPK1 (UniProt P58107) 0.068, EIF6 (UniProt P56537) -0.04, ENSA isoform 3 (UniProt O43768) -0.052, EMP3 (UniProt P54852) 0.005, EIF4E isoform 2 (UniProt P06730) -0.04, ENTPD5 (UniProt O75356) -0.036, EPRS (UniProt P07814) 0.001, EIF2B4 isoform 2 (UniProt Q9UI10) 0.006, EMC4 (UniProt Q5J8M3) 0.138, ELP2 isoform 6 (UniProt Q6IA86) 0.008, ENGASE (UniProt Q8NFI3) 0.003, ENPP3 (UniProt O14638) 0.021, ENDOG (UniProt Q14249) -0.037, EPN1 (UniProt Q9Y6I3) -0.041, EMD (UniProt P50402) 0.076
